Data as given in PubChem BioAssay AID587 (National Center for Advancing Translational Sciences (NCATS), 2007).
Among all 59,000 compounds or so, about 35 (0.06%) were called active. The shares of active, inactive and inconclusive entries below differ from those in the screen. No stated cut-off is given here; in the data, active means max dye-equivalent concentration above about 10 nM; inconclusive means between about 1.1 nM and that limit; inactive means weaker than that.

Assay: qHTS Assay for Spectroscopic Profiling in Texas Red Spectral Region
Details: Compound fluorescence, Texas Red channel, 547/618 nm; hits give high values
Outline: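 qHTS profiling of intrinsic compound fluorescence; 100 mM Tris pH 8.0; 15 min RT; ex 547 / em 618 nm; response expressed as Texas Red dye-equivalent concentration from six-point plate standard.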
With `O=C(NCc1ccc2c(c1)OCO2)c1c[nH]c2ccc(S(=O)(=O)N3CCOCC3)cc2c1=O` the max dye-equivalent concentration was inconclusive: 1.1 nM. For `Cc1cc(N2CCN(C(=O)c3ccco3)CC2)n2nc(C)c(-c3ccccc3)c2n1`, the max dye-equivalent concentration was inconclusive: 1.3 nM. In the case of `COc1ccc(Oc2ncc3nc(-c4ccc(F)cc4)c(=O)n(C4CC4)c3n2)cc1`, the max dye-equivalent concentration is reported as “inactive”. For `CC1Cc2ccccc2N1C(=O)CSc1nnc(CSc2ncccn2)n1C` (centres undefined), the max dye-equivalent concentration was inconclusive: 1.4 nM. For `CCSC1=NC(=O)/C(=C2/C=Cc3ccccc3N2CC)S1`, the max dye-equivalent concentration was “inactive”. For `OC(COc1ccc2ccccc2c1Cl)CN1CCOCC1` (centres undefined), the max dye-equivalent concentration was inconclusive: 1.6 nM. In the case of `Cc1c(C(=O)OCC(=O)c2ccc3c(c2)OCCO3)oc2ccccc12`, the max dye-equivalent concentration is reported as inconclusive: 1.4 nM. For `CC(=O)c1c(O)cc(C)n(Cc2ccccc2)c1=O`, the max dye-equivalent concentration was inconclusive: 1.1 nM. For `COC(=O)c1ccc(COC(=O)C23CC4CC(CC(O)(C4)C2)C3)o1`, the max dye-equivalent concentration was inconclusive: 1.9 nM. With `CC(=O)NCCc1ccc(O)c(O)c1` the max dye-equivalent concentration was inconclusive: 1.6 nM. With `COc1ccc(N=c2oc3cc(O)ccc3cc2C(=O)NCC2CCCO2)c(OC)c1` (centres undefined) the max dye-equivalent concentration was “inactive”. For `CC(=O)N1C(=O)N(C(C)=O)C2C1N(C(C)=O)C(=O)N2C(C)=O` (centres undefined), the max dye-equivalent concentration was “inactive”. For `CCOC(=O)CNC(=O)CSc1ncnc2c1cnn2Cc1ccccc1`, the max dye-equivalent concentration was inconclusive: 1.5 nM. In the case of `COCCN(C(=O)CCC(=O)Nc1cccnc1)C(C(=O)NC1CCCCC1)c1ccccc1` (centres undefined), the max dye-equivalent concentration is reported as inconclusive: 2 nM. In the case of `COC(=O)COc1ccc(S(=O)(=O)N2CCOCC2)cc1C`, the max dye-equivalent concentration is reported as inconclusive: 2.1 nM. For `Cc1ccc(-c2nnn(CC(=O)N(Cc3cccs3)C(C(=O)NC(C)(C)C)c3ccco3)n2)o1` (centres undefined), the max dye-equivalent concentration was inconclusive: 1.8 nM. With `COc1ccc2nc(N3CCCCC3)c(C#N)cc2c1` the max dye-equivalent concentration was inconclusive: 1.2 nM. With `CCOC(=O)C1CCN(c2nc(-c3ccccc3)nc3c2oc2ccccc23)CC1` the max dye-equivalent concentration was inconclusive: 1.3 nM. In the case of `COc1cc(S(=O)(=O)NCc2ccccc2)ccc1F`, the max dye-equivalent concentration is reported as inconclusive: 1.9 nM. For `O=C(O)c1ccccc1-c1nc2ccccc2c(=O)[nH]1`, the max dye-equivalent concentration was inconclusive: 1.1 nM. For `Cc1cc(C)nc(SCc2nnc(SCC(=O)Nc3ncc(C)s3)n2Cc2ccco2)n1`, the max dye-equivalent concentration was “inactive”. For `CSc1ccccc1NS(=O)(=O)c1ccccc1`, the max dye-equivalent concentration was inconclusive: 1.2 nM. With `COCCNC(=O)CNS(=O)(=O)c1ccc2nc(C)sc2c1` the max dye-equivalent concentration was inconclusive: 1.2 nM. For `CC1=C(C(=O)Nc2ccc(Cl)cc2)C(c2cccs2)n2nnnc2N1` (centres undefined), the max dye-equivalent concentration was inconclusive: 1.1 nM. For `COCC(=O)NCc1nc2ccccc2[nH]1`, the max dye-equivalent concentration was inconclusive: 1.9 nM. For `O=C(Nc1nc(-c2ccccc2)ns1)c1cccs1`, the max dye-equivalent concentration was inconclusive: 1.1 nM. In the case of `CCCn1c2c(c(O)c(C(=O)NC)c1=O)CCCC2`, the max dye-equivalent concentration is reported as inconclusive: 1.2 nM. In the case of `Cc1ccsc1CNn1cnnc1SCc1ccccc1F`, the max dye-equivalent concentration is reported as inconclusive: 1.1 nM. In the case of `O=C(O)c1c[nH]c2ccc(S(=O)(=O)N3CCOCC3)cc12`, the max dye-equivalent concentration is reported as inconclusive: 1.1 nM. In the case of `COc1ccc(-c2[nH]nc3c2C(c2ccccc2OC(=O)N2CCOCC2)C(C#N)=C(N)O3)cc1` (centres undefined), the max dye-equivalent concentration is reported as inconclusive: 1.1 nM. For `CCN1CCc2c(sc(NC(=O)c3ccc(S(=O)(=O)N4CCOCC4)cc3)c2C(=O)OC)C1`, the max dye-equivalent concentration was inconclusive: 1.6 nM. With `CC1CN(C(=O)CSc2ncnc3sccc23)CC(C)O1` (centres undefined) the max dye-equivalent concentration was inconclusive: 1.5 nM. In the case of `CCC(c1nnnn1C1CCCC1)N1CCN(C(=O)c2ccco2)CC1` (centres undefined), the max dye-equivalent concentration is reported as “inactive”. With `CCOc1cccc(NC(=O)C(Cc2cccs2)c2nn[nH]n2)c1` (centres undefined) the max dye-equivalent concentration was inconclusive: 1.3 nM. In the case of `O=C(c1ccco1)N1CCN(C(c2ccccn2)c2nnnn2C2CCCC2)CC1` (centres undefined), the max dye-equivalent concentration is reported as inconclusive: 1.1 nM. In the case of `C[C@@H]1O[C@@H](OC[C@@H]2O[C@@H](Oc3c(-c4ccc(O)c(O)c4)oc4cc(O)cc(O)c4c3=O)[C@H](O)[C@H](O)[C@@H]2O)[C@H](O)[C@H](O)[C@@H]1O`, the max dye-equivalent concentration is reported as “inactive”. With `O=C(CSc1ccccc1C(=O)O)Nc1cccc(C(=O)O)c1` the max dye-equivalent concentration was inconclusive: 2.4 nM. In the case of `COc1ccc2c(c1)[n+]([O-])c(/C(C)=N/NC(N)=S)c(C)[n+]2[O-]`, the max dye-equivalent concentration is reported as inconclusive: 1.2 nM. In the case of `CC(C)OCCCNC(=O)c1ccc(NS(C)(=O)=O)cc1`, the max dye-equivalent concentration is reported as inconclusive: 1.7 nM. For `COc1ccc2cc(C#N)c(NC(C)C)nc2c1`, the max dye-equivalent concentration was inconclusive: 1.3 nM. In the case of `COc1ccc2cc(CN(Cc3cccnc3)Cc3nnnn3Cc3ccccc3)c(=O)[nH]c2c1`, the max dye-equivalent concentration is reported as inconclusive: 1.3 nM. In the case of `N#CCOc1nc(N2CCOCC2)nc(N2CCOCC2)n1`, the max dye-equivalent concentration is reported as inconclusive: 2.4 nM. With `CCOC(=O)C1=C(C)NC2=C(C(=O)C(C(=O)OC)C(C)C2)C1c1ccc(OC)c(O)c1` (centres undefined) the max dye-equivalent concentration was inconclusive: 1.2 nM. With `COc1cc(OC)cc(-c2nc(N)n[nH]2)c1` the max dye-equivalent concentration was inconclusive: 1.1 nM. For `Cc1ccc2nc(C3CCN(C(=O)c4ccco4)CC3)[nH]c2c1`, the max dye-equivalent concentration was inconclusive: 1.2 nM. For `CC(C)(C)Nc1nc(Oc2ccc(=O)n(-c3ccccc3)n2)nc(N2CCOCC2)n1`, the max dye-equivalent concentration was inconclusive: 1.3 nM. With `CC(=O)c1c(C)[nH]c(C(=O)N2CCN(C(=O)c3ccco3)CC2)c1C` the max dye-equivalent concentration was inconclusive: 1.6 nM. For `CCOC(=O)c1ccc(NC(=O)CSC2=NC(=O)C(CC)C(=O)N2)cc1` (centres undefined), the max dye-equivalent concentration was inconclusive: 1.2 nM. In the case of `CCn1c(COc2cccc(OC)c2)nnc1SCC(=O)Nc1ccccc1C(=O)OC`, the max dye-equivalent concentration is reported as inconclusive: 1.8 nM. In the case of `Cc1nn(-c2ccccc2)c(C)c1C(=O)OCC(=O)NC(=O)NC1CCCCC1`, the max dye-equivalent concentration is reported as inconclusive: 1.4 nM. With `O=C(CN(C(=O)CNS(=O)(=O)c1ccccc1)C1CCCC1)NCc1ccco1` the max dye-equivalent concentration was inconclusive: 1.1 nM. With `O=C(Nc1ccc2c(c1)OCCO2)C1CCN(S(=O)(=O)c2cccs2)CC1` the max dye-equivalent concentration was inconclusive: 1.5 nM. With `CCCCOCCCNC(=O)N[C@@H](CCSC)C(=O)OC` the max dye-equivalent concentration was inconclusive: 1.1 nM. In the case of `CCCC(=O)Nc1ccc(NC(=O)C2CC2)cn1`, the max dye-equivalent concentration is reported as inconclusive: 1.5 nM.
